Reference: patent publication US11435353B2, “Method of evaluating drug resistance and treatment effect” (priority 2018, dated 2022)
At least one structure is not confirmed: it was looked up by name or label, or the drawing left a doubt.

Experiments:
Assay type in all cases: cell-based
[1] = system: p-AKT; assay: Western blot of p-AKT; conditions: in the presence of tamoxifen, left of FIG. 8K
Protocol: (§1) On the other hands, similar experiments above are also performed to identify the upstream modulator of TRBP.
(§2) Whole cell extracts were lysed in RIPA buffer and collected to fractionate by SDSPAGE, and then transferred onto PVDF membranes according to the manufacture's protocols (Bio-Rad). After blocking with 5% nonfat milk in TBST for 60 min, membranes were washed and incubated with primary antibodies at 4° C. overnight. Membranes were washed three times for 10 min and incubated with secondary antibodies for 60 min. Protein expressions were visualized by ECL system according to the manufacture's protocols.

[2] = system: SOX2 protein; assay: Western blot of SOX2 protein expression; conditions: in the presence of tamoxifen, right of FIG. 8K
Protocol: In order to identify the downstream modulator of TRBP, the tamoxifen-sensitive cells (MCF-7) were treated with 2 μM tamoxifen for 48 hours, and then RNA of the tamoxifen-sensitive cell (MCF-7) was isolated to analyze the mRNA expression of stem cell markers by using a reverse-transcription PCR (qRT-PCR), with the aforementioned experiment being repeated at least three times, and with ATP5E being used as a positive control for tamoxifen treatment (*P<0.05) by t-test. Then, the tamoxifen-sensitive cells (MCF-7) were further collected to analyze protein expression by using a western blot. Accordingly, we determined the expression of several key factors that have been reported to modulate self-renewal and drug resistance of cancer cells, including SOX2, Nanog, OCT4, Lin28A, CCND1.
as §1, §2

[3] = system: TRBP; assay: Western blot of TRBP expression after tamoxifen or 4OHT treatment; conditions: in the presence of tamoxifen, right of FIG. 8K
Protocol: as §1, §2

COC[C@H]1OC(=O)c2coc3c2[C@@]1(C)C1=C(C3=O)[C@@H]2CCC(=O)[C@@]2(C)C[C@H]1OC(C)=O [Wortmannin]
tamoxifen-induced p-AKT [1]: inhibition of tamoxifen-induced p-AKT
SOX2 expression [2]: blocked
TRBP expression [3]: blocked
